From US20070134261A1, “Effectors of innate immunity” (priority 2001, published 2007)
At least one peptide structure holds a part that was inferred or is arguable (an end, a ring closure or a residue). No end group written: not given here.

System: human CD14+ monocytes
Experiment: Human 21K DNA microarrays of CD14+ monocytes from PBMC stimulated with SEQ ID NO: 7 and/or LPS (Tables 69-72)
Format: cell-based

## KSRIVPAIPVSLL [SEQ ID NO: 7]
Gene MADH7, human monocytes
  Fold Change by LPS + SEQ 7: 3.2 fold
Gene MAFF
  Fold Change SEQ ID NO: 7: 2.1
Gene MAFF, human monocytes
  Fold Change by LPS + SEQ 7: 2.5 fold
Gene MAGEA9
  Fold Change by LPS + SEQ 7: −1.6 fold
Gene MAML3
  Fold Change SEQ ID NO: 7: −1.5
Gene MAN1C1
  Fold Change SEQ ID NO: 7: 1.6
Gene MAN2B1
  Fold Change SEQ ID NO: 7: 1.5
Gene MANBAL
  Fold Change by LPS + SEQ 7: 1.9 fold
Gene MAP1A
  Fold Change by LPS + SEQ 7: 1.6 fold
Gene MAP1B
  Fold Change by LPS + SEQ 7: −2.0 fold
Gene MAP1LC3A, human monocytes
  Fold Change by LPS + SEQ 7: 2.5 fold
Gene MAP2K2
  Fold Change by LPS + SEQ 7: 2.2 fold
Gene MAP2K6
  Fold Change SEQ ID NO: 7: 1.8
Gene MAP3K1, human monocytes
  Fold Change by LPS + SEQ 7: 15.9 fold
Gene MAPK6
  Fold Change by LPS + SEQ 7: 1.7 fold
Gene MAPK8IP3
  Fold Change by LPS + SEQ 7: 1.6 fold
Gene MAPK12
  Fold Change by LPS + SEQ 7: 1.7 fold
Gene MARK3
  Fold Change SEQ ID NO: 7: 3.1
Gene MARK3, human monocytes
  Fold Change by LPS + SEQ 7: 3.1 fold
Gene MARK4
  Fold Change by LPS + SEQ 7: −1.8 fold
Gene MATN4
  Fold Change by LPS + SEQ 7: 1.5 fold
Gene MATP, human monocytes
  Fold Change by LPS + SEQ 7: 3.8 fold
Gene MBNL1
  Fold Change SEQ ID NO: 7: 2.3
Gene MC4R
  Fold Change by LPS + SEQ 7: −1.6 fold
Gene MCART1, human monocytes
  Fold Change by LPS + SEQ 7: 22.8 fold
Gene MCCC2
  Fold Change by LPS + SEQ 7: −1.5 fold
Gene MCL1
  Fold Change SEQ ID NO: 7: 2.2
Gene MDN1
  Fold Change by LPS + SEQ 7: 2.2 fold
Gene MEF2C
  Fold Change by LPS + SEQ 7: −2.8 fold
Gene MEP1A
  Fold Change SEQ ID NO: 7: 3.1
Gene METTL4, human monocytes
  Fold Change by LPS + SEQ 7: 2.9 fold
Gene MFI2
  Fold Change by LPS + SEQ 7: 1.6 fold
Gene MFN1
  Fold Change by LPS + SEQ 7: −1.6 fold
Gene MGAT5, human monocytes
  Fold Change by LPS + SEQ 7: 2.6 fold
Gene MGAT5B, human monocytes
  Fold Change by LPS + SEQ 7: 4.3 fold
Gene MKI67
  Fold Change by LPS + SEQ 7: 1.8 fold
Gene MLCB
  Fold Change SEQ ID NO: 7: 2.6
Gene MLL2
  Fold Change SEQ ID NO: 7: 2.4
Gene MLLT3, human monocytes
  Fold Change by LPS + SEQ 7: 2.7 fold
Gene MNDA
  Fold Change SEQ ID NO: 7: 1.6
Gene MOCS3
  Fold Change by LPS + SEQ 7: −2.1 fold
Gene MPDZ
  Fold Change by LPS + SEQ 7: −1.6 fold
Gene MPHOSPH6, human monocytes
  Fold Change by LPS + SEQ 7: 6.0 fold
Gene MPP4, human monocytes
  Fold Change by LPS + SEQ 7: 8.2 fold
Gene MPP7
  Fold Change by LPS + SEQ 7: −1.5 fold
Gene MPPE1
  Fold Change by LPS + SEQ 7: −1.6 fold
Gene MRPS16
  Fold Change by LPS + SEQ 7: −1.7 fold
Gene MRPS22, human monocytes
  Fold Change by LPS + SEQ 7: 5.3 fold
Gene MRPS28
  Fold Change SEQ ID NO: 7: 1.8
Gene MSX1, human monocytes
  Fold Change by LPS + SEQ 7: 9.2 fold
Gene MTHFR
  Fold Change by LPS + SEQ 7: −1.7 fold
Gene MTIF2
  Fold Change by LPS + SEQ 7: −1.7 fold
Gene MTRF1
  Fold Change SEQ ID NO: 7: 2.8
Gene MTRF1, human monocytes
  Fold Change by LPS + SEQ 7: 2.8 fold
Gene MUC1
  Fold Change SEQ ID NO: 7: 1.8
Gene MUC11, human monocytes
  Fold Change by LPS + SEQ 7: 5.3 fold
Gene MUC20
  Fold Change by LPS + SEQ 7: −1.7 fold
Gene MVP
  Fold Change by LPS + SEQ 7: −1.8 fold
Gene MXD3
  Fold Change by LPS + SEQ 7: 1.6 fold
Gene MYCL1
  Fold Change by LPS + SEQ 7: −1.9 fold
Gene MYL4, human monocytes
  Fold Change by LPS + SEQ 7: 8.9 fold
Gene MYOZ2
  Fold Change by LPS + SEQ 7: −1.6 fold
Gene NAALAD2
  Fold Change SEQ ID NO: 7: −1.8
Gene NALP1
  Fold Change SEQ ID NO: 7: −1.8
Gene NAP1L3, human monocytes
  Fold Change by LPS + SEQ 7: 2.5 fold
Gene NBR2
  Fold Change SEQ ID NO: 7: −1.6
Gene NCAM2
  Fold Change SEQ ID NO: 7: 2.3
  Fold Change by LPS + SEQ 7: 1.9 fold
Gene NCK1
  Fold Change SEQ ID NO: 7: 2.9
Gene NCK1, human monocytes
  Fold Change by LPS + SEQ 7: 3.3 fold
Gene NDUFAF1
  Fold Change SEQ ID NO: 7: −1.5
Gene NDUFB4
  Fold Change SEQ ID NO: 7: 2.2
  Fold Change by LPS + SEQ 7: 2.0 fold
Gene NDUFB7
  Fold Change SEQ ID NO: 7: 1.7
Gene NDUFV1
  Fold Change SEQ ID NO: 7: 2.1
Gene NEF3, human monocytes
  Fold Change by LPS + SEQ 7: 3.0 fold
Gene NEFH
  Fold Change by LPS + SEQ 7: 2.0 fold
Gene NEK1
  Fold Change by LPS + SEQ 7: 2.0 fold
Gene NFIA
  Fold Change SEQ ID NO: 7: −1.6
Gene NFKB2, human monocytes
  Fold Change by LPS + SEQ 7: 2.8 fold
Gene NFYA
  Fold Change by LPS + SEQ 7: 1.6 fold
Gene NICE1, human monocytes
  Fold Change by LPS + SEQ 7: 2.8 fold
Gene NJMU_HUMAN
  Fold Change SEQ ID NO: 7: −1.7
Gene NME1
  Fold Change by LPS + SEQ 7: 2.0 fold
Gene NMI
  Fold Change by LPS + SEQ 7: 1.6 fold
Gene NOL4
  Fold Change SEQ ID NO: 7: 1.6
Gene NOL8
  Fold Change by LPS + SEQ 7: 1.9 fold
Gene NOTCH4
  Fold Change SEQ ID NO: 7: 1.9
Gene NP
  Fold Change SEQ ID NO: 7: 1.6
Gene NPAS2
  Fold Change SEQ ID NO: 7: 2.4
Gene NPB
  Fold Change by LPS + SEQ 7: 1.6 fold
